Results deposited as PubChem BioAssay AID1159584 (Peter MacCallum Cancer Centre, 2016).

Aim: 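Genes that CDH1-null MCF10A cells selectively depend on to survive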 (primary screen)
Cells: human MCF10A breast epithelial cells, parental and CDH1-null
Knock-down reagent: siRNA against human genes
Measurement: 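Cell viability by CellTiter-Glo ATP luminescence, each line scaled to the mean of mock wells across plates, then CDH1-null over parental ratio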
Reading the numbers: CDH1-null / parental viability ratio: higher = CDH1-null cells survive relatively better than parental; CDH1-null viability vs mock: higher = more viable CDH1-null cells; parental viability vs mock: higher = more viable parental cells
Shown is one part, drawn at random, of about 18,000 deposited reagents. Reagent sequences are not shown. The record does not give: the amount of reagent, the time to read-out.

The opening 6 entries as a preview:
no.	Target gene	PubChem SID	CDH1-null / parental viability ratio	CDH1-null viability vs mock (fraction of mock)	parental viability vs mock (fraction of mock)
1	KIF5C (kinesin family member 5C)	SID135623841	1.03	1.07	1.04
2	MCUR1 (mitochondrial calcium uniporter regulator 1)	SID135621997	0.9	0.86	0.96
3	SYNE2 (spectrin repeat containing nuclear envelope protein 2)	SID135623713	1.16	1.04	0.9
4	SACK1H (scaffolding CK1 anchoring protein H)	SID135624656	1.13	0.62	0.55
5	JAM2 (junctional adhesion molecule 2)	SID134321326	0.86	0.64	0.74
6	LPXN (leupaxin)	SID134314463	0.94	0.84	0.89

Results, from the first entry:
no.	Target gene	PubChem SID	CDH1-null / parental viability ratio	CDH1-null viability vs mock (fraction of mock)	parental viability vs mock (fraction of mock)
1	KIF5C (kinesin family member 5C)	SID135623841	1.03	1.07	1.04
2	MCUR1 (mitochondrial calcium uniporter regulator 1)	SID135621997	0.9	0.86	0.96
3	SYNE2 (spectrin repeat containing nuclear envelope protein 2)	SID135623713	1.16	1.04	0.9
4	SACK1H (scaffolding CK1 anchoring protein H)	SID135624656	1.13	0.62	0.55
5	JAM2 (junctional adhesion molecule 2)	SID134321326	0.86	0.64	0.74
6	LPXN (leupaxin)	SID134314463	0.94	0.84	0.89
7	CLMB (calcimembrin)	SID152151169	0.81	0.7	0.86
8	HPS1 (HPS1 biogenesis of lysosomal organelles complex 3 subunit 1)	SID134315418	0.91	0.86	0.94
9	EPS15L1 (epidermal growth factor receptor pathway substrate 15 like 1)	SID134310223	1.02	0.88	0.86
10	NKPD1 (NTPase KAP family P-loop domain containing 1)	SID135624655	0.92	0.78	0.85
11	PTGFR (prostaglandin F receptor)	SID135621057	1.37	1.07	0.78
12	AHR (aryl hydrocarbon receptor)	SID152147184	1.38	1.55	1.12
13	CHST14 (carbohydrate sulfotransferase 14)	SID134313674	1.28	0.64	0.5
14	H3C2 (H3 clustered histone 2)	SID134311809	1.13	0.71	0.63
15	ATP2A3	SID134311533	1	1.03	1.03
16	LTBP1 (latent transforming growth factor beta binding protein 1)	SID135622062	0.94	0.62	0.66
17	ARRB2 (arrestin beta 2)	SID134312346	1.04	1.28	1.23
18	SPTLC2 (serine palmitoyltransferase long chain base subunit 2)	SID152147691	0.97	0.83	0.86
19	CENPQ (centromere protein Q)	SID134324413	0.93	0.78	0.84
20	ZNF562 (zinc finger protein 562)	SID152153727	1.22	1	0.82
21	STARD8 (StAR related lipid transfer domain containing 8)	SID134314835	1.1	0.68	0.62
22	PTP4A2 (protein tyrosine phosphatase 4A2)	SID135621704	1.38	1.02	0.74
23	RSPH14 (radial spoke head 14 homolog)	SID152150079	0.93	0.8	0.86
24	COL8A1 (collagen type VIII alpha 1 chain)	SID134317248	1.01	0.87	0.86
25	SIX2 (SIX homeobox 2)	SID134320989	1.09	0.76	0.7
26	ST3GAL1 (ST3 beta-galactoside alpha-2,3-sialyltransferase 1)	SID152156367	0.73	0.67	0.92
27	SPEM1 (spermatid maturation 1)	SID135625085	0.87	0.59	0.68
28	SCN5A (sodium voltage-gated channel alpha subunit 5)	SID135621202	1.22	1.09	0.89
29	PRG2 (proteoglycan 2, pro eosinophil major basic protein)	SID134321848	1.06	0.76	0.72
30	ETHE1 (ETHE1 persulfide dioxygenase)	SID134316772	0.98	0.86	0.88
31	TIMM8A (translocase of inner mitochondrial membrane 8A)	SID135621929	1.04	0.86	0.83
32	TRIM11 (tripartite motif containing 11)	SID134312198	0.77	0.62	0.8
33	TSLIG3B (tRNA splicing ligase complex subunit 3B)	SID135623486	0.68	0.5	0.74
34	SCAPER (S-phase cyclin A associated protein in the ER)	SID134315153	1.05	1.02	0.97
35	XKR8 (XK related 8)	SID135623009	1.11	0.62	0.56
36	MAFF (MAF bZIP transcription factor F)	SID134310149	0.61	0.34	0.56
37	TSPEAR (thrombospondin type laminin G domain and EAR repeats)	SID134320881	1.09	0.76	0.7
38	HSPB1 (heat shock protein family B (small) member 1)	SID134310839	1.02	0.51	0.5
39	AKR1B15 (aldo-keto reductase family 1 member B15)	SID135625166	1.15	1.06	0.92
40	BOC (BOC cell adhesion associated, oncogene regulated)	SID134313286	0.99	0.8	0.81
41	SPTY2D1 (SPT2 chromatin protein domain containing 1)	SID152153491	0.81	0.65	0.8
42	ZNF592 (zinc finger protein 592)	SID152153738	0.99	0.94	0.95
43	KCTD16 (potassium channel tetramerization domain containing 16)	SID152147632	0.83	0.72	0.87
44	COMMD9 (COMM domain containing 9)	SID135624046	0.72	0.6	0.83
45	COMMD9 (COMM domain containing 9)	SID135625084	0.92	0.7	0.76
46	MED11 (mediator complex subunit 11)	SID135625286	1	0.7	0.7
47	NPY5R (neuropeptide Y receptor Y5)	SID134311113	0.72	0.68	0.94
48	IGBP1 (immunoglobulin binding protein 1)	SID134315646	1.35	0.92	0.68
49	PWP2 (PWP2 small subunit processome component)	SID134323685	1.05	0.65	0.62
50	RPE65 (retinoid isomerohydrolase RPE65)	SID135621522	0.88	0.67	0.76
51	KRTAP5-4 (keratin associated protein 5-4)	SID135625273	0.68	0.48	0.71
52	DHX38 (DEAH-box helicase 38)	SID152148768	0.88	0.65	0.74
53	KRT222 (keratin 222)	SID152147790	1.13	1.18	1.04
54	GPATCH11 (G-patch domain containing 11)	SID134321763	1.11	0.82	0.74
55	NPC2 (NPC intracellular cholesterol transporter 2)	SID134321166	1.01	0.9	0.89
56	MPI (mannose phosphate isomerase)	SID152152697	1.22	1.12	0.92
57	COQ8A (coenzyme Q8A)	SID152154525	0.56	0.4	0.71
58	BCL2L1 (BCL2 like 1)	SID135620681	0.74	0.62	0.84
59	SPATA2L (spermatogenesis associated 2 like)	SID134322165	1.11	0.39	0.35
60	UBA6 (ubiquitin like modifier activating enzyme 6)	SID135621192	1.09	0.98	0.9
61	OR2T10 (olfactory receptor family 2 subfamily T member 10)	SID152150840	0.94	0.5	0.53
62	DIMT1 (DIM1 rRNA methyltransferase and ribosome maturation factor)	SID152148308	0.92	0.88	0.96
63	H4C3 (H4 clustered histone 3)	SID134315797	1.04	0.52	0.5
64	IKZF5 (IKAROS family zinc finger 5)	SID152150793	1.04	0.56	0.54
65	MGAT4D (MGAT4 family member D)	SID135624431	0.93	0.66	0.71
66	SPTBN4 (spectrin beta, non-erythrocytic 4)	SID135622777	1.16	1.29	1.11
67	KLHDC8A (kelch domain containing 8A)	SID134324543	1	0.68	0.68
68	PWWP2B (PWWP domain containing 2B)	SID135624551	1.09	0.87	0.8
